Measured values published in PMC10762035, “Molecular basis of human trace amine-associated receptor 1 activation” (Nature Communications, 2024).
Values joined by “and” are separate entries in the source; they are usually repeats but may differ in a detail not shown here. Equal entries are not always repeated.

Tests used:
[1] = molecular target: T1, hTA1 (Homo sapiens, UniProt Q96RJ0); assay: GloSensor cAMP accumulation assay, concentration response, wild-type hTA1 in transfected HEK293T cells; format: cell-based; conditions: log[Compound], replicate wells;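 further: luminescence read after 30 min compound exposure at room temperature in cells preloaded with D-Luciferin, reflecting Gs-driven cAMP rise, efficacy scaled to the maximal β-PEA response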
T1 construct: expressed in transfected cells; host or cells: HEK293T
T1 sequence (Q96RJ0 1-339): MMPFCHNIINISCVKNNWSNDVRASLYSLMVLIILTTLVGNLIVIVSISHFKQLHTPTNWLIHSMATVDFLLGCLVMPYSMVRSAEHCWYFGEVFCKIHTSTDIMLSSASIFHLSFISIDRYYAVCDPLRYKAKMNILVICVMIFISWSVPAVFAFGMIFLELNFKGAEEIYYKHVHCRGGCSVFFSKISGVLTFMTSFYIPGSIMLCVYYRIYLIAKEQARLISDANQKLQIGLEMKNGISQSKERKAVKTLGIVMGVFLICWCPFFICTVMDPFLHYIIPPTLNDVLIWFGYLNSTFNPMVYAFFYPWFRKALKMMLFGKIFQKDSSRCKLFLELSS

[2] = molecular target: T1, hTA1; assay: Screen of 89 aminergic compounds at 10 µM, cAMP accumulation in HEK293T cells; format: cell-based;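 further: HEK293T cells co-transfected with hTA1 and GloSensor cAMP reporter, cAMP accumulation detected by luminescence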

CCN(CC)C(=O)N[C@H]1C=C2c3cccc4[nH]cc(c34)C[C@H]2N(C)C1 [lisuride]
Normalized Luminescence Counts for WT hTA1 ([1]; M = -5): 9.855 and 8.9709 and 7.628 | Normalized Luminescence Counts for WT hTA1 ([1]; M = -5.522): 4.878 and 5.304 and 4.845 | Normalized Luminescence Counts for WT hTA1 ([1]; M = -6): 1.244 and 1.047 and 1.211 | Normalized Luminescence Counts for WT hTA1 ([1]; M = -6.522): 0.1961 and 0.7527 and 1.5058 | Normalized Luminescence Counts for WT hTA1 ([1]; M = -7): 0.06517 and 0.4253 and 0.2616 | Normalized Luminescence Counts for WT hTA1 ([1]; M = -7.522): -0.6551 and -0.4587 and 0.589 | Normalized Luminescence Counts for WT hTA1 ([1]; M = -8): 0.1961 and 0.2944 and 0.2616 | Normalized Luminescence Counts for WT hTA1 ([1]; M = -8.522): -0.03305 and -0.426 and -0.2295 | Normalized Luminescence Counts for WT hTA1 ([1]; M = -9): -0.2622 and -0.1313 and -0.426 | Normalized Luminescence Counts for WT hTA1 ([1]; M = -9.522): -0.1313 and -0.4914 and 0.09791 | Normalized Luminescence Counts for WT hTA1 ([1]; M = -10): 0.2944 and -0.1313 and -0.0003118 | Normalized Luminescence Counts for WT hTA1 ([1]; M = -10.522): 0.4253 and 0.1634 and 0.1307 | Normalized Luminescence Counts for WT hTA1 ([1]; M = -11): -0.03305 and 0.2616 and -0.4587 | Normalized Luminescence Counts for WT hTA1 ([1]; M = -11.522): 0.2289 and -0.426 and -0.1313 | Normalized Luminescence Counts for WT hTA1 ([1]; M = -12): -0.164 and -0.1313 and -0.4914 | Normalized Luminescence Counts for WT hTA1 ([1]; M = -12.522): 0.3926 and -0.4914 and -0.2295 | Luminescence for Screening Data [2]: 16.9 and 13.7 and 18.8 and 14.5 | increase of signal over DMSO-treated controls (hTA1 activation) [2]: ≥ 4 fold
